Results as given in patent publication US20190225669A1.
Results are given in words; binding and its absence hold for the method and conditions named. Some binding calls cover weakened binding; strength is not graded here. Sequences can lack the tags named with a protein.

Amino acid sequences for entries named in this document (tags omitted). Residues count along the entry.
UniProt O95393, residues 317-424: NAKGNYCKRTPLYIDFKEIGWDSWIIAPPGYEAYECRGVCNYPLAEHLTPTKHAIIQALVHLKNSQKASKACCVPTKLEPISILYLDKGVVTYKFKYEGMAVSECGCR
UniProt P22003, residues 317-454: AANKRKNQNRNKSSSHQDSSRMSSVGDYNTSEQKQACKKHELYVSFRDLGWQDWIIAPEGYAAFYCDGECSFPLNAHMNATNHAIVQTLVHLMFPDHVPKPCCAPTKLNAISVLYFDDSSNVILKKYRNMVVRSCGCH
UniProt P22004, residues 382-513: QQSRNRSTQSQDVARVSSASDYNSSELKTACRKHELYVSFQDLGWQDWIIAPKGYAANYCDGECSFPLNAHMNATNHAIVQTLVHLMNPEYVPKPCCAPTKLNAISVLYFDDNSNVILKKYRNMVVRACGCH
UniProt Q9UK05, residues 320-429: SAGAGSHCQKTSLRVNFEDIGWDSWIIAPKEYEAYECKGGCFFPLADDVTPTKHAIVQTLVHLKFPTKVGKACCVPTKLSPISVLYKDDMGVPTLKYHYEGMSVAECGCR

Key:
[1] = target: BMP10 (UniProt O95393); test: Biacore SPR
[2] = target: BMP5 (UniProt P22003); test: Biacore SPR
[3] = target: BMP6 (UniProt P22004); test: Biacore SPR
[4] = target: BMP9 (UniProt Q9UK05); test: Biacore SPR
[5] = target: T1, GDF11 (UniProt O95390); test: Biacore SPR
T1 sequence (looked up): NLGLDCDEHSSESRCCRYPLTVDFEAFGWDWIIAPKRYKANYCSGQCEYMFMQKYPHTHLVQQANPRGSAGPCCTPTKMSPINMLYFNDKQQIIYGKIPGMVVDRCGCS

[6] = target: T2, GDF3 (UniProt Q9NR23); test: Biacore SPR
T2 sequence (looked up): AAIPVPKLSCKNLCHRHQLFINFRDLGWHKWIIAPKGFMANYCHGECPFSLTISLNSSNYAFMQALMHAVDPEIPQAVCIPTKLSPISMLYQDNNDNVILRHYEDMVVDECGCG

[7] = target: T3, GDF8 (UniProt O14793); test: Biacore SPR
T3 sequence (looked up): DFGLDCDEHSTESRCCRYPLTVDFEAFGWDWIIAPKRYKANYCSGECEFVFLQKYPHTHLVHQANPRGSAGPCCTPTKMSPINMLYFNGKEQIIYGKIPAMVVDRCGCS

[8] = target: T4, activin B (UniProt P09529); test: Biacore SPR
T4 sequence (looked up): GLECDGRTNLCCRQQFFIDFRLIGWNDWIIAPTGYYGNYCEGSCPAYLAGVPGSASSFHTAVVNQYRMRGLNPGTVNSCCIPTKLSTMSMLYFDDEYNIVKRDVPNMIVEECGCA

[9] = target: T5, GDF5 (UniProt P43026); test: Biacore SPR; kinetics indeterminate (transient)
T5 sequence (looked up): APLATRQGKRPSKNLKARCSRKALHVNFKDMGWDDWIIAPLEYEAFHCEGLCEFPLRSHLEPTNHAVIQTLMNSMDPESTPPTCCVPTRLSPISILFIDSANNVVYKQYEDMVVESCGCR

[10] = target: T6, GDF7 (UniProt Q7Z4P5); test: Biacore SPR; kinetics indeterminate (transient)
T6 sequence (looked up): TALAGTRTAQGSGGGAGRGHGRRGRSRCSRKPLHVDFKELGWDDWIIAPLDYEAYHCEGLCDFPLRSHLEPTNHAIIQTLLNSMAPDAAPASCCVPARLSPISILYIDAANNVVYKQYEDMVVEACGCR

[11] = target: BMP6 (UniProt P22004); test: Biacore SPR; kinetics indeterminate (transient)
[12] = target: T7, GDF6 (UniProt Q6KF10); test: Biacore SPR; kinetics indeterminate (transient)
T7 sequence (looked up): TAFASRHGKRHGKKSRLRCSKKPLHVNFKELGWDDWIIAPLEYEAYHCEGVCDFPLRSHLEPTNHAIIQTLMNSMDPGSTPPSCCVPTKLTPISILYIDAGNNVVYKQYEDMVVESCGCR

Measured: binding

B1: ActRIIB-Fc homodimer (Fc fusion, UniProt Q13705 19-137, looked up, not shown: a dimerising Fc or GST)
chain: SGRGEAETRECIYYNANWELERTNQSGLERCEGEQDKRLHCYASWRNSSGTIELVKKGCWLDDFNCYDRQECVATEENPQVYFCCCEGNFCNERFTHLPEAGGPEVTYEPPPTAPTLLT
not listed: [11] | [12]
binds: all other assays above

B2: BMPRII-Fc homodimer (Fc fusion, UniProt Q13873 27-150, looked up, not shown: a dimerising Fc or GST)
chain: SQNQERLCAFKDPYQQDLGIGESRISHENGTILCSKGSTCYGLWEKSKGDINLVKQGCWSHIGDPQECHYEECVVTTTPPSIQNGTYRFCCCSTDLCNVNFTENFPPPDTTPLSPPHSFNRDET
binds: [11] | [12]
